For at least one entry, the source does not settle the construct or the ends of the probe. At least one verdict was read from the data and is not stated in words by the source. Tags and fusion partners may be left off the protein sequences shown.
Target: T1, FUS WT (FUS-FL) (UniProt P35637)
T1 sequence (looked up, limits assumed): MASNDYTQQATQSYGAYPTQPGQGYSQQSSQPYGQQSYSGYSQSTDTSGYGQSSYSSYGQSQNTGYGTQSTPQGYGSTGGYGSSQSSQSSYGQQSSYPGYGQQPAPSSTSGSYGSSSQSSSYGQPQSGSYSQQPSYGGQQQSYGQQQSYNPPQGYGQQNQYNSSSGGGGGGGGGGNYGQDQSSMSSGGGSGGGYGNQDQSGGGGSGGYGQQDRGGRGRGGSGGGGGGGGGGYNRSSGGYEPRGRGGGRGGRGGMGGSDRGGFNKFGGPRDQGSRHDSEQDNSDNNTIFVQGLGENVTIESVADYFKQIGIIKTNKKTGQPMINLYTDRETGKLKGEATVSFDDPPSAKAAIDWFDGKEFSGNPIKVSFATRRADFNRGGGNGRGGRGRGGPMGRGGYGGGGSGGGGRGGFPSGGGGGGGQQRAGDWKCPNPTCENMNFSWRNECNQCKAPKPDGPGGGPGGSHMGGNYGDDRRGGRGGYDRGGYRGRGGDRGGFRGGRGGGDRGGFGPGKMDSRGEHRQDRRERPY
Assay: MST
Settings: MST: PBS with 0.05% BSA and 0.05% Tween-20, 5 nM Cy5-RNA, temperature not stated; nucleosome pull-down buffer not given; recombinant protein; protein details: GST (pGEX-6p-2); label: 3' Cy5

Sequence | binding result
GGUGGGUGGGUGGGUGGGUG [5XGGUG-3'Cy5] | binds
UUAGGGUUAGGGUUAGGGUUAGGG [4XUUAGGG-3'Cy5] | binds
